Structures can show the parent of a compound that is named as a salt. The name of at least one read-out is uncertain.
These compounds were tested on Candida albicans (assay: Experimental candidosis of the mouse by Candida albicans (survival after oral treatment)). Conditions: 2 x tgl. 100 mg/kg oral for 4 days, groups of 10 mice.
Type: in vivo, Maus

Structure (SMILES)	Anzahl der überlebenden Tiere am 1. Tag post infectionem	Anzahl der überlebenden Tiere am 2. Tag post infectionem	Anzahl der überlebenden Tiere am 3. Tag post infectionem	Anzahl der überlebenden Tiere am 4. Tag post infectionem	Anzahl der überlebenden Tiere am 5. Tag post infectionem	Anzahl der überlebenden Tiere am 6. Tag post infectionem	Anzahl der überlebenden Tiere am 7. Tag post infectionem	Anzahl der überlebenden Tiere am 8. Tag post infectionem	Anzahl der überlebenden Tiere am 9. Tag post infectionem	Anzahl der überlebenden Tiere am 10. Tag post infectionem
OC(Cn1cncn1)(c1ccccc1)c1ccccc1Cl (stereo not shown) [Beispiel 6, 1-Phenyl-1-(2-chlorphenyl)-2-(1.2.4-triazol-1-yl)--äthan-1-ol-hydrochlorid]	10	10	10	10	10	10	10	10	9	9
OC(Cn1cncn1)(c1ccccc1)c1ccc(Cl)cc1 (stereo not shown) [Beispiel 7, 1-Phenyl-1-(4-chlorphenyl)-2-(1.2.4-triazol-1-yl)-äthan--1-ol-hydrochlorid]	10	10	10	10	10	10	10	10	10	10
OC(Cn1cncn1)(c1ccccc1)c1ccc(Cl)cc1Cl (stereo not shown) [Beispiel 9, 1-Phenyl-1-(2,4-dichlorphenyl)-2-(1.2.4-triazol-1-yl)--äthan-1-ol]	10	10	10	10	10	10	10	10	10	10
OC(Cn1cncn1)(c1ccccc1)c1ccc(Cl)cc1Cl (stereo not shown) [Beispiel 10, 1-Phenyl-1-(2,4-dichlorphenyl)-2-(1.2.4-triazol-1-yl)--äthan-1-ol-hydrochlorid]	10	10	10	10	10	10	10	10	10	10
